83 compounds from PubChem BioAssay AID743402 (Broad Institute, 2014) can be followed below.

Out of some 1,200 compounds screened, about 140 (12%) were called active.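 How the source made its calls: active means fitted curve falls past -35% activity change at a dose under twice the top valid dose, in every replicate test; inconclusive means replicate tests disagree on the call; inactive means the rest, including activity in the opposite direction.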 Most of the strongest results are missing from this list.

This experiment in a line: CFTR-F508del correctors, dose response, FRT cells, YFP quenching, cherry-pick (AID 743402).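 Further: compounds act as correctors raising surface CFTR-F508del before acute activation.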 The settings on record: FRT CFTR-F508del YFP iodide quenching, 24 h, channel opened with forskolin and a potentiator; at 26 µM (top of the series) unless noted.
Take `COCCNC(=O)C1CCCN(C(=O)c2cc(-c3cccs3)oc2C)CC1` (stereo not drawn): the activity change, negative = more quenching (active) was inactive: 13.3%. As for `Cc1ccc(-c2ccc3c(c2)O[C@H](CN(C)C(=O)Nc2ccc(C(F)(F)F)cc2)[C@H](C)CN([C@@H](C)CO)S3(=O)=O)cc1`, the figure is inactive: 0%. Regarding `CC(C)C[C@H]1CN([C@@H](CC(C)C)CN2CCC[C@@H]2CN2C(=S)NC[C@@H]2Cc2ccc(O)cc2)C(=S)N1CCc1ccccc1`, the activity change, negative = more quenching (active) was inactive: 15.6%.

For the compound `O=C1c2cccc3c(O)ccc(c23)C(=O)N1c1ccc(Cl)cc1`, the activity change, negative = more quenching (active) is inactive: -29%. For the compound `N#CCC(=O)N/N=C/c1cn(Cc2cccc3ccccc23)c2ccccc12`, the activity change, negative = more quenching (active) is inactive: 9.79%. In the case of `COc1ccc(C(C#N)CC(=O)c2ccc3c(c2)OCO3)cc1OC` (stereo not drawn), the activity change, negative = more quenching (active) is inactive: 16.7%. For the compound `O=C(Nc1ccccc1)N1C[C@H]2[C@@H](c3ccccc31)[C@H](CO)N2C(=O)c1ccccn1`, the activity change, negative = more quenching (active) is inactive: 21.4%.

Regarding `C/C=C/c1ccc([C@@H]2[C@H](CO)N(CC3CC3)[C@H]2CNC(=O)c2ccccc2)cc1`, the activity change, negative = more quenching (active) was inactive: 3.33% [at 23.5 µM].

For the compound `C[C@@H]1CN([C@H](C)CO)S(=O)(=O)c2ccc(C#CC3CC3)cc2O[C@H]1CN(C)Cc1ccccn1`, the activity change, negative = more quenching (active) was inactive: 6.46%. In the case of `Cc1c(C(=O)N/N=C/c2c(O)ccc3ccccc23)nnn1-c1nonc1N` it was inactive: 3.33%; in that of `COc1ccccc1N1CCN(/N=C/C=C\c2ccccc2[N+](=O)[O-])CC1`, inactive: 13.3%.

In the case of `O=C(N/N=C/c1cccs1)c1cc(C2CC2)nc2ccccc12`, the activity change, negative = more quenching (active) is inactive: 13.3%. As for `COc1ccc2c(c1)/C(=C/c1cc(OC)c(OC)c(OC)c1)C(=O)N2`, the figure is inactive: 20.2%; as for `CCCCn1c(CN2CCN(c3cccc(Cl)c3)CC2)nc2c1c(=O)[nH]c(=O)n2C`, inactive: 15.6%. In the case of `COc1ccccc1S(=O)(=O)N1CC[C@@H]2[C@@H](CO)N(C)c3ccc(-c4ccc(F)cc4)cc3[C@@H]21` it was inactive: -20.1% [at 23.5 µM].

`O=C(c1cccc(S(=O)(=O)N2CCN(c3ccc(F)cc3)CC2)c1)N1CCCC(C(F)(F)F)C1` (stereo not drawn): the activity change, negative = more quenching (active) was inactive: 6.67%. In the case of `CCc1nc(N)nc(N)c1-c1ccc(Cl)c([N+](=O)[O-])c1` it was inactive: 6.97%; in that of `COc1cccc(-c2ccc([C@H]3[C@@H](CO)N(C(=O)c4ccccn4)[C@H]3C#N)cc2)c1`, inactive: 19.3%.

Regarding `Clc1ccc2c(c1)-c1ccccc1C1=NCCN12`, the activity change, negative = more quenching (active) is inactive: -1.51%.

In the case of `COc1ccc(-c2nc(-c3cccc(C)c3)no2)cc1OC`, the activity change, negative = more quenching (active) is inactive: 10%. As for `O=C(NCCOc1ccccc1F)c1cc([N+](=O)[O-])ccc1N1CCOCC1`, the figure is inactive: 23.3%; as for `O=C(COC(=O)Cc1ccsc1)Nc1cccc(F)c1`, inactive: 3.33%. For the compound `O=S(=O)(Cc1ccc(Cl)cc1Cl)c1ccc(Cl)cc1`, the activity change, negative = more quenching (active) was inactive: -22.5%. `CCN(CC)c1ccc(/C=N/NC(=O)c2cnccn2)cc1`: the activity change, negative = more quenching (active) was inactive: -23.3%.

Take `Cc1cc(C)c(C(=O)NC2CCCc3c2cnn3-c2cccc(C)c2C)o1` (stereo not drawn): the activity change, negative = more quenching (active) was inactive: 23.9%. In the case of `Cc1ccccc1-c1nc(CS(=O)(=O)CC(=O)NCc2ccccc2)c(C)o1`, the activity change, negative = more quenching (active) was inactive: 8.28%. Consider `CC(C)NC(=O)c1ccc(COc2cccc3ccccc23)o1`, for which the activity change, negative = more quenching (active) was inactive: 6.97%.

In the case of `Cc1ccc2[nH]c(-c3ccccc3)cc(=O)c2c1`, the activity change, negative = more quenching (active) was inactive: -12.5%. In the case of `Cc1cc(C(=O)CN2CCN(CC(=O)Nc3ccc(F)cc3)CC2)c(C)n1C1CC1`, the activity change, negative = more quenching (active) was inactive: 13.1%.

Turning to `CCOC(=O)c1c(NC(=O)C(=O)N/N=C/c2ccccc2O)sc2c1CCCCC2`, the activity change, negative = more quenching (active) is inactive: 0.208%. Take `COc1cc(C(=O)Nc2ccccc2C(=O)Nc2ccccn2)cc(OC)c1OC`: the activity change, negative = more quenching (active) was inactive: 19.4%. Regarding `Oc1ccc(/C=N/Nc2nc(-c3ccccc3F)nc3ccccc23)c(O)c1`, the activity change, negative = more quenching (active) is inactive: 3.33%. With `C/C=C/c1ccc([C@@H]2[C@H](CO)N3CCCCN(S(=O)(=O)c4ccccc4)C[C@@H]23)cc1`, the activity change, negative = more quenching (active) was inactive: 7.14%. In the case of `COc1ccccc1NS(=O)(=O)c1cc(C(=O)N2CCCCCC2)ccc1C` it was inactive: 8.99%. Turning to `O=Cc1ccccc1OCc1ccc2c(c1)OCO2`, the activity change, negative = more quenching (active) was inactive: -6.97%. On to `CC(C)C[C@H]1CN([C@@H](Cc2ccc(O)cc2)CN2CCC[C@H]2CN2C(=O)C(=O)NC[C@@H]2Cc2ccccc2)C(=O)C(=O)N1CC1CCCCC1`, for which the activity change, negative = more quenching (active) was inactive: 33.5%. Take `CC(=O)Nc1ccc(S(=O)(=O)NC2=C(N3CCN(Cc4ccccc4)CC3)C(=O)c3ccccc3C2=O)cc1`: the activity change, negative = more quenching (active) is inactive: 19.4%. On to `COC(=O)C1=CN(c2ccc(OC)cc2OC)C(N)=C(C#N)C1c1ccccc1F` (stereo not drawn), for which the activity change, negative = more quenching (active) is inactive: 6.46%. In the case of `CC(=O)NC(=S)Nc1ccc(NC(=S)NC(=O)/C=C/c2ccco2)cc1`, the activity change, negative = more quenching (active) was inactive: -1.61%. On to `CCOC(=O)c1c(C)[nH]c(C(=O)N/N=C\c2ccccc2O)c1C`, for which the activity change, negative = more quenching (active) is inactive: -6.25%. Take `COc1ccc(C2CN=NC23CCc2ccccc2C3=O)cc1` (stereo not drawn): the activity change, negative = more quenching (active) was inactive: 13.3%. In the case of `CC(=O)Oc1c(C)cc(Cl)cc1C(=O)Nc1ccc([N+](=O)[O-])cc1Cl` it was inactive: 10%; in that of `COc1ccc2c(c1)c(CC(=O)OCC(=O)O)c(C)n2C(=O)c1ccc(Cl)cc1`, inactive: -3.12%. For the compound `c1ccc2c(c1)N1CCCN=C1N2CCN1CCCCC1`, the activity change, negative = more quenching (active) is inactive: 6.67%. Take `Cc1noc(NS(=O)(=O)c2ccc(N/C=C\C(=O)c3ccccc3)cc2)c1C`: the activity change, negative = more quenching (active) is inactive: 6.46%. As for `COc1ccc2c3c([nH]c2c1)[C@@H](CO)N(C(=O)C1CCOCC1)CC31CCN(Cc2cccc(F)c2)CC1`, the figure is inactive: -9.58%; as for `Cc1c(Cl)cccc1NC(=O)C1CC(=O)N(C2CCCC2)C1` (stereo not drawn), inactive: 9.79%; as for `O=C1c2ccccc2C(=O)c2c1cccc2N(CCO)CCO`, inactive: -5.56%. In the case of `CCNC(=O)C1CCCN(C(=O)c2cc(F)ccc2C)CC1` (stereo not drawn) it was inactive: -1.61%. For `COc1ccccc1C(=O)Nc1ccc2c(c1)nc(CCNC(=O)c1ccco1)n2C`, the activity change, negative = more quenching (active) was inactive: -0.446%. For `CCCc1nc2ccccc2c(C(=O)OCC(=O)NCc2ccc3c(c2)OCO3)c1CC`, the activity change, negative = more quenching (active) is inactive: 3.57%.

On to `COc1ccccc1C(=O)NC(=S)/C=C1/N(C)c2ccccc2C1(C)C`, for which the activity change, negative = more quenching (active) was inactive: -3.33%. For `COc1ccc2c(c1)C(=O)CC(c1ccc3c(c1)OCCO3)O2` (stereo not drawn), the activity change, negative = more quenching (active) was inactive: 14.3%. In the case of `C[C@H]1CCCCO[C@H](CN(C)C(=O)Cc2ccccc2)[C@@H](C)CN([C@@H](C)CO)C(=O)c2cc(N(C)C)ccc2O1`, the activity change, negative = more quenching (active) was inactive: 8.74%. As for `C[C@H]1CN([C@@H](C)CO)S(=O)(=O)c2ccc(/C=C/c3ccccc3)cc2O[C@@H]1CN(C)C(=O)Nc1ccc(F)cc1`, the figure is inactive: 7.14%; as for `COc1cccc(/C=N/NC(=O)C(=O)Nc2ccccc2OC(F)(F)C(F)F)c1O`, inactive: 8.28%; as for `CN1c2ccc(-c3ccc(F)cc3)cc2[C@H]2[C@H](CCN2S(=O)(=O)c2ccc(F)cc2)[C@@H]1CO`, inactive: -7.14%. As for `Nc1[nH]c(C(=O)c2ccccc2)c(-c2ccccc2C(F)(F)F)c1C(=O)NCCc1c[nH]c2ccccc12`, the figure is inactive: 31.2%. As to `O=C(CC1Sc2ccccc2NC1=O)NNc1cccc(Cl)c1Cl` (stereo not drawn), the activity change, negative = more quenching (active) was inactive: 6.67%.

For `CC(=O)Nc1cccc(-c2ccnc3c2CC(C)(C(=O)NCc2cccs2)O3)c1` (stereo not drawn), the activity change, negative = more quenching (active) was inactive: -6.67%.

In the case of `O=C(CSC1=NNC(c2ccccn2)S1)Nc1ccccc1` (stereo not drawn), the activity change, negative = more quenching (active) was inactive: 16.2%. With `CCc1ccc(-c2nc(C(N)=O)c3[nH]c(=O)n(-c4ccccc4OC)c3n2)cc1`, the activity change, negative = more quenching (active) is inactive: -12.9%. As for `O=C1C=CCC(/C=C/c2ccccc2)O1` (stereo not drawn), the figure is inactive: 16.7%; as for `Cc1ccc(NC(=O)CSC2=NN3CCCC(=O)N=C3S2)c(C)c1`, inactive: 13.3%; as for `CCCCNC(=O)c1onc(CSc2ccccc2C)c1C(=O)O`, inactive: 6.67%. In the case of `COc1ccccc1/C=N/NC(=O)c1cc2c(OC)c(OC)ccc2[nH]1` it was inactive: 20%; in that of `COc1ccc(NC(=O)N(C)C[C@@H]2Oc3cc(C#CCC(C)C)ccc3S(=O)(=O)N([C@H](C)CO)C[C@@H]2C)cc1`, inactive: 19.4%. `Nc1nn(-c2ccccc2)c(N)c1N=Nc1cccc(F)c1`: the activity change, negative = more quenching (active) is inactive: -3.33%. As for `O=C(NNC(=O)c1ccncc1)Nc1ccc(Cl)cc1`, the figure is inactive: 7.42%; as for `N#Cc1ncn(C2OC(CO)C(O)C2O)c1N` (stereo not drawn), inactive: 3.33%; as for `COc1cc(/C=C2\SC(=S)N(NC(=O)c3ccncc3)C2=O)ccc1O`, inactive: -30%. `O=C(NCCN1C(=O)S/C(=C\c2ccc(OC(F)F)cc2)C1=O)c1cnccn1`: the activity change, negative = more quenching (active) is inactive: 3.33%. `Clc1cccc(-c2ccc(C=Nc3ccc(N4CCOCC4)cc3)o2)c1Cl`: the activity change, negative = more quenching (active) was inactive: 3.33%. Take `Nc1ccccc1C(=O)N1O[C@@H]2C=C[C@H]1C2`: the activity change, negative = more quenching (active) is inactive: 4.84%. Turning to `O=S(=O)(Nc1ccc(F)cc1Cl)c1ccc(-c2cnc(C3CC3)o2)cc1`, the activity change, negative = more quenching (active) is inactive: -22.5%. Take `Cn1c(C(=O)c2ccccc2[N+](=O)[O-])nc2ccccc21`: the activity change, negative = more quenching (active) is inactive: -22.1%. On to `C[C@H]1CN([C@@H](C)CO)S(=O)(=O)c2ccc(C#Cc3ccc(F)cc3)cc2O[C@H]1CN(C)C(=O)NC1CCCC1`, for which the activity change, negative = more quenching (active) is inactive: 10.7%. In the case of `CCCNC(=O)N1CC2(CN(S(=O)(=O)c3cccc(OC)c3)C2)c2c(n(C)c3cc(OC)ccc23)[C@H]1CO` it was inactive: 12.3%; in that of `COc1ccc(C(=O)Nc2ccc(NC(=O)c3cccc(F)c3)cn2)cc1`, inactive: 8.01%. For the compound `CCCC(=O)NC(c1ccc(Cl)cc1)c1ccc2cccnc2c1O` (stereo not drawn), the activity change, negative = more quenching (active) was inactive: 3.12%.

`O=C(Cc1ccc(Cl)cc1)OCC(=O)c1ccc[nH]1`: the activity change, negative = more quenching (active) is inactive: 3.12%. As for `CCOC(=O)c1oc2ccc(S(=O)(=O)n3nc(-c4ccccc4)cc3N)cc2c1C`, the activity change, negative = more quenching (active) was inactive: 5.42%. Regarding `C[C@H]1CN([C@@H](C)CO)S(=O)(=O)c2ccc(C#Cc3cccc(F)c3)cc2O[C@H]1CN(C)C(=O)NC1CCCCC1`, the activity change, negative = more quenching (active) is inactive: 13.6%.
